{"sequences": {"note": "The chains behind the UniProt entries cited, without tags or fusion partners.", "UniProt Q12888": "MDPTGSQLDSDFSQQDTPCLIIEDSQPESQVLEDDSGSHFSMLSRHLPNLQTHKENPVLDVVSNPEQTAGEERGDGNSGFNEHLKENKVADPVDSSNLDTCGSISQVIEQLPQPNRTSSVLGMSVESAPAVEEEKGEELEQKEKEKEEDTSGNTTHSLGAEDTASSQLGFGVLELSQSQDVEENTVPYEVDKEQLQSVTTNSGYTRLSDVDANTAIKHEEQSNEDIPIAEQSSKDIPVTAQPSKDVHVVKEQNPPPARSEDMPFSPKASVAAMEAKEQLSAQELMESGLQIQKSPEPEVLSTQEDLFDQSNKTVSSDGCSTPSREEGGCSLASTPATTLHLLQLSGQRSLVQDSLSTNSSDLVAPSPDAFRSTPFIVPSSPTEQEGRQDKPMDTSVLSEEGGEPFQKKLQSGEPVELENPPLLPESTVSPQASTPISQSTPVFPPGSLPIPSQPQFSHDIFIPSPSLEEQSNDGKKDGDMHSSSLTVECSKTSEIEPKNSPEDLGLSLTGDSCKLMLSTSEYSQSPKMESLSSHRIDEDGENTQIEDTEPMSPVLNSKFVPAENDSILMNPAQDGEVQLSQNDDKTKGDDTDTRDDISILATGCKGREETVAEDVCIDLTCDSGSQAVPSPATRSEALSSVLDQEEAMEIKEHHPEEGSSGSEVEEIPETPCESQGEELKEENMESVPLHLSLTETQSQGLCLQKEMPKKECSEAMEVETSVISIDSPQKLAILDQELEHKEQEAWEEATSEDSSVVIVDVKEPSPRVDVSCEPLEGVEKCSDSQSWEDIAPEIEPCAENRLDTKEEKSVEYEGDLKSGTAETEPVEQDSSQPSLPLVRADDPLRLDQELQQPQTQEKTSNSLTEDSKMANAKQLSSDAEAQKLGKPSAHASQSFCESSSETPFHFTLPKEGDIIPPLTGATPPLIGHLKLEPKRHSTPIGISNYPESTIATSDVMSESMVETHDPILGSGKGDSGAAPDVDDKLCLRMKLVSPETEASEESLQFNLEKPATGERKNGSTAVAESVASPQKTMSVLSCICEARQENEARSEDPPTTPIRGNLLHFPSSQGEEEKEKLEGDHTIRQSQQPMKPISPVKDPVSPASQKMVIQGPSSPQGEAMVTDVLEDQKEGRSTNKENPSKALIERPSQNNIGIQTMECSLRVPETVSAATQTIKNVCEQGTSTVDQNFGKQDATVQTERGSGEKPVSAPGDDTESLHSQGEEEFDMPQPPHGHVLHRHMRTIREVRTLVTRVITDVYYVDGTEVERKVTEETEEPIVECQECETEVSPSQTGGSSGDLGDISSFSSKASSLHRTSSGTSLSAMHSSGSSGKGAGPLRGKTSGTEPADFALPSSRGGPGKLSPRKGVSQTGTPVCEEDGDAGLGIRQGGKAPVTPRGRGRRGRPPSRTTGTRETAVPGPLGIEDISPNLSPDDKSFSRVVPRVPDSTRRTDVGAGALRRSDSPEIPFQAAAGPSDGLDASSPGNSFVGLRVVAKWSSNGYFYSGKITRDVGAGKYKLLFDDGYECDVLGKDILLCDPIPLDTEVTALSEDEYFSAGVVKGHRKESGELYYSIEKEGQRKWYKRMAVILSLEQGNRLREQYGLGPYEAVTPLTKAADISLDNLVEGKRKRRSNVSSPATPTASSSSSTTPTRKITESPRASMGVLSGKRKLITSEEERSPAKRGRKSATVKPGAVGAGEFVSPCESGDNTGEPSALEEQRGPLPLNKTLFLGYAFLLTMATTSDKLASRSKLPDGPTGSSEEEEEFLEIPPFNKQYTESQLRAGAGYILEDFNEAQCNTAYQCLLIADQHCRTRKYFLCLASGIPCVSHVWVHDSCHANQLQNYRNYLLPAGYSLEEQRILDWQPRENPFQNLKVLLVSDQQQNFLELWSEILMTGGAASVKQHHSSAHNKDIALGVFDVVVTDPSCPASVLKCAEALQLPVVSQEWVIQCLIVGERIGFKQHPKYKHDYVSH"}, "source": "paper doi:10.1101/2025.03.18.643855", "key": {"[1]": {"target": "T1, FLAG-GMCL1 WT (wild-type human germ cell-less protein-like 1) (human) (UniProt Q96IK5)", "T1 sequence": "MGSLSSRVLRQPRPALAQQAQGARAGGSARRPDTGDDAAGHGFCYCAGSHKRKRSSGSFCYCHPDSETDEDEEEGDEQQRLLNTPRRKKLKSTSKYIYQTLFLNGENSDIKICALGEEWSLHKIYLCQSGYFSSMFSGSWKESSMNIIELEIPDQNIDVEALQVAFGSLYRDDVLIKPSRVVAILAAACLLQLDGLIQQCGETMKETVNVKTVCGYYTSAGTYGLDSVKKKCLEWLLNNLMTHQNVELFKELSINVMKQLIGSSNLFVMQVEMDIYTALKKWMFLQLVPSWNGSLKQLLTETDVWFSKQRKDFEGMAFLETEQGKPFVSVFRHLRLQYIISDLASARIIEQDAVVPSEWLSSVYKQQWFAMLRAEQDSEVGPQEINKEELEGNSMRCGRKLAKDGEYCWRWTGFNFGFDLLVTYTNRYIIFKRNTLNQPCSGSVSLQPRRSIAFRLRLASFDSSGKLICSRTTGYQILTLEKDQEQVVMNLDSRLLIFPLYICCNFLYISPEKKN", "assay": "affinity purification with mass spectrometry; FLAG-tagged GMCL1 WT, EK or BBO expressed in HEK293T (24 h), captured on FLAG-M2 magnetic beads (4°C, 2 h), eluted with FLAG peptide, MS/MS; SAINT score > 0.70, FDR < 5%, compared with BBO"}, "FLAG-GMCL1 E142K (human)": {"target": "T2, FLAG-GMCL1 E142K (human) (UniProt Q96IK5)", "T2 sequence": "T1 sequence with E142K", "assay": "affinity purification with mass spectrometry; FLAG-tagged GMCL1 WT, EK or BBO expressed in HEK293T (24 h), captured on FLAG-M2 magnetic beads (4°C, 2 h), eluted with FLAG peptide, MS/MS; SAINT score > 0.70, FDR < 5%, compared with BBO"}}, "note": "Numbering of substitutions follows the chain as printed. No constants are given. Whether binding was seen depends on the method and setting. In cells and extracts the contact can be indirect. A yes stands for co-enrichment or nearness to the bait. Other partners may have been found. Where a sequence is shown, tags or fusion partners need not be part of it.", "data": [{"substance": "endogenous 53BP1 (p53-binding protein 1), HEK293T (from UniProt Q12888 1-1972)", "values": [{"measurement": "binding", "setting": "[1]", "value": "binds"}, {"measurement": "binding", "setting": "FLAG-GMCL1 E142K (human)", "value": "binds"}]}]}
